Measurements published in PMC4525385.
These are yes or no findings as the source states them, for the method shown. Some results given as binding are weak or reduced against the parent protein; the word gives no strength. Tags and fused reporters may be left off the sequences shown.

Target: T1, TamA, histidine-tagged (pBADTamA-C-term-6xHis) (E. coli) (UniProt P0ADE4)
T1 sequence: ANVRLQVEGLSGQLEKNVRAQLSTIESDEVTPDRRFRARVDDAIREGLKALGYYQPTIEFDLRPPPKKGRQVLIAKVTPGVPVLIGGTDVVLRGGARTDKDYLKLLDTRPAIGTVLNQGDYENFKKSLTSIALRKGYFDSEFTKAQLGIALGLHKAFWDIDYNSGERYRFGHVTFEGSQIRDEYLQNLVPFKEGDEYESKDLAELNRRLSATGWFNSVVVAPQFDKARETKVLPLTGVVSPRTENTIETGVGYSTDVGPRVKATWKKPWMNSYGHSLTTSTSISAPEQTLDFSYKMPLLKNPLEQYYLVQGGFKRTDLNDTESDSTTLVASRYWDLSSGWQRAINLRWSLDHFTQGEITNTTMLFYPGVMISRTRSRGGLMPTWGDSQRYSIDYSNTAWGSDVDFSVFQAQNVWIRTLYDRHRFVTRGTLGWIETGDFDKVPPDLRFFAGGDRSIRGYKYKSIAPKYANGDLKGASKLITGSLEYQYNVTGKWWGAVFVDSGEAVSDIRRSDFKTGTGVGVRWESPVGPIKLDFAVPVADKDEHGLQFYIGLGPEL
Assay: QCM-D; histidine-tagged TamA or deletion form attached to a Ni-ANTA gold surface, POPC membrane layer reconstituted around it; then 0.5 mL of 0.2 mg/ml TamB (step 3) and 0.5 mL of 0.2 mg/ml urea-denatured Ag43 (step 4) added one after the other, washes with 20 mM TRIS, 150 mM NaCl; 25 °C; both purified

B1: Ag43, urea-denatured (protein, UniProt P39180 53-1039)
chain: ADIVVHPGETVNGGTLANHDNQIVFGTTNGMTISTGLEYGPDNEANTGGQWVQDGGTANKTTVTSGGLQRVNPGGSVSDTVISAGGGQSLQGRAVNTTLNGGEQWMHEGAIATGTVINDKGWQVVKPGTVATDTVVNTGAEGGPDAENGDTGQFVRGDAVRTTINKNGRQIVRAEGTANTTVVYAGGDQTVHGHALDTTLNGGYQYVHNGGTASDTVVNSDGWQIVKNGGVAGNTTVNQKGRLQVDAGGTATNVTLKQGGALVTSTAATVTGINRLGAFSVVEGKADNVVLENGGRLDVLTGHTATNTRVDDGGTLDVRNGGTATTVSMGNGGVLLADSGAAVSGTRSDGKAFSIGGGQADALMLEKGSSFTLNAGDTATDTTVNGGLFTARGGTLAGTTTLNNGAILTLSGKTVNNDTLTIREGDALLQGGSLTGNGSVEKSGSGTLTVSNTTLTQKAVNLNEGTLTLNDSTVTTDVIAQRGTALKLTGSTVLNGAIDPTNVTLASGATWNIPDNATVQSVVDDLSHAGQIHFTSTRTGKFVPATLKVKNLNGQNGTISLRVRPDMAQNNADRLVIDGGRATGKTILNLVNAGNSASGLATSGKGIQVVEAINGATTEEGAFVQGNRLQAGAFNYSLNRDSDESWYLRSENAYRAEVPLYASMLTQAMDYDRIVAGSRSHQTGVNGENNSVRLSIQGGHLGHDNNGGIARGATPESSGSYGFVRLEGDLMRTEVAGMSVTAGVYGAAGHSSVDVKDDDGSRAGTVRDDAGSLGGYLNLVHTSSGLWADIVAQGTRHSMKASSDNNDFRARGWGWLGSLETGLPFSITDNLMLEPQLQYTWQGLSLDDGKDNAGYVKFGHGSAQHVRAGFRLGSHNDMTFGEGTSSRAPLRDSAKHSVSELPVNWWVQPSVIRTFSSRGDMRVGTSTAGSGMTFSPSQNGTSLDLQAGLEARVRENITLGVQAGYAHSVSGSSAEGYNGQATLNVTF
In the case of B1, the binding is reported as “binds”.
